Inconclusive results, whose numbers are uncertain, are shown with a selection of clear calls. For part of these data: Where the call is inconclusive, the potency comes from a doubtful curve fit. More than one record can exist for a structure, and the calls need not agree. Activity calls are given as the source filed them. The calls were made as follows: active = hit-call score of the fitted dose curve at least 0.9, where 1 is the maximum; inconclusive = response in the unintended direction; inactive = score below 0.9.
Experiments:
[1] = target: Estrogen receptor (Homo sapiens) + Estrogen receptor beta (Homo sapiens) (UniProt P03372+Q92731); assay: OT_ER_ERaERb_0480: Odyssey Thera (OT) 8-hour HEK293T Protein-Complementation Assay for Estrogen Receptor-alpha/-beta Heterodimer (AID 2283352)
Outline: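 Human HEK293T cells were treated for 8 hours and receptor heterodimerisation was detected through reconstitution of a fluorescent reporter split between ER-alpha and ER-beta ligand-binding domains. Activity was analysed as gain of signal against DMSO.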

The chains behind the UniProt entries cited, without tags or fusion partners. Where a name states a change or a piece, a line headed by the entry shows the natural chain unless it says otherwise.
UniProt P03372, whole entry, looked up: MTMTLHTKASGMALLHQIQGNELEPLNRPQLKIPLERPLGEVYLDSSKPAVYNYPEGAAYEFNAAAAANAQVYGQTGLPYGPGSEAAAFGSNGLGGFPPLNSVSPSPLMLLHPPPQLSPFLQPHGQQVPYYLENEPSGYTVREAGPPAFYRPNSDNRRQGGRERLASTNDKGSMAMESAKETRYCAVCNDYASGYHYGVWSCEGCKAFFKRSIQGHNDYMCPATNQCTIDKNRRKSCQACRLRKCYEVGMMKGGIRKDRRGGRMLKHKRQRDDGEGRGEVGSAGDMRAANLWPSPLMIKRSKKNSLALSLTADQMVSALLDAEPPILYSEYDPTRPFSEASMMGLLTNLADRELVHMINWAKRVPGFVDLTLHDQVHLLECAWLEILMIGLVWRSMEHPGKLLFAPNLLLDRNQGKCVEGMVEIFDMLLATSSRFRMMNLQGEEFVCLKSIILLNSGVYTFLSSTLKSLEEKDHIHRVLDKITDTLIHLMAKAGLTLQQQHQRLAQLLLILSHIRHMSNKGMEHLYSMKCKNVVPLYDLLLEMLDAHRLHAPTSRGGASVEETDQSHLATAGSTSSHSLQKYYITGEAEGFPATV
UniProt Q92731, whole entry, looked up: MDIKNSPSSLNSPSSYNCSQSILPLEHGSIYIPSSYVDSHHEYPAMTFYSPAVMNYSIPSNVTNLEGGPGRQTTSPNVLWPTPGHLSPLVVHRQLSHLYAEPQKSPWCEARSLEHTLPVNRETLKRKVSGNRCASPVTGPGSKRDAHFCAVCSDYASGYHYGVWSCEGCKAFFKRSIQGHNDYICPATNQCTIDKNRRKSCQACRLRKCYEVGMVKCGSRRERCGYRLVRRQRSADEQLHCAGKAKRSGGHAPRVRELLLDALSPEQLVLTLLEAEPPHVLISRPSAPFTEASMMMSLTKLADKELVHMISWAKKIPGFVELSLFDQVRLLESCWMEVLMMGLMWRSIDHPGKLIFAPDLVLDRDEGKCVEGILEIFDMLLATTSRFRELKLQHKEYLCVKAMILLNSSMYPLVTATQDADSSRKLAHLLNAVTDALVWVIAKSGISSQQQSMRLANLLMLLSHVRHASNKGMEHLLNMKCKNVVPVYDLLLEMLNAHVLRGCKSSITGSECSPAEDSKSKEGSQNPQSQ
UniProt P31751: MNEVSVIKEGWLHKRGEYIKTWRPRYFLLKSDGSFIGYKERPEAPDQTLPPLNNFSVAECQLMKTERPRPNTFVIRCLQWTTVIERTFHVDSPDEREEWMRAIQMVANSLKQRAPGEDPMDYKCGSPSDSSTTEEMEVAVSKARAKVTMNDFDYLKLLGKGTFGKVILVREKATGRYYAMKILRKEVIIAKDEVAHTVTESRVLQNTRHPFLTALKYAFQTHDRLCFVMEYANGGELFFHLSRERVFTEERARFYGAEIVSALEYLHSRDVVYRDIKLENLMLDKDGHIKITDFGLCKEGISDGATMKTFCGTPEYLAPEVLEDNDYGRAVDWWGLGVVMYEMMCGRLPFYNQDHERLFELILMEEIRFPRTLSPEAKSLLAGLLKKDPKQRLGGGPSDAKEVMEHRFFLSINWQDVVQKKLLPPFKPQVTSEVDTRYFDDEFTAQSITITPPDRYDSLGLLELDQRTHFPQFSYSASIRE
UniProt P08173, whole entry, looked up: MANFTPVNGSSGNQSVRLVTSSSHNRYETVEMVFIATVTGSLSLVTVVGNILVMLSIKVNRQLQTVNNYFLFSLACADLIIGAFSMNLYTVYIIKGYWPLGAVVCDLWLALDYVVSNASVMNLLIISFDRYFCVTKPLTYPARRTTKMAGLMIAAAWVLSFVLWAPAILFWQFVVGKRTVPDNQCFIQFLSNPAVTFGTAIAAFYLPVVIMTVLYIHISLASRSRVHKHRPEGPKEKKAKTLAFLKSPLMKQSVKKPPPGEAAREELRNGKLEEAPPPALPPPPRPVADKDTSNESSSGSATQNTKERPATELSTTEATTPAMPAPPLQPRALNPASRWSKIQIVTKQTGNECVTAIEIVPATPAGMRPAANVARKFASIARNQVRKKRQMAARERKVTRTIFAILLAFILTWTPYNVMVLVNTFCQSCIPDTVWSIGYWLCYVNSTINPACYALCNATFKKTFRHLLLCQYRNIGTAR
UniProt P49841: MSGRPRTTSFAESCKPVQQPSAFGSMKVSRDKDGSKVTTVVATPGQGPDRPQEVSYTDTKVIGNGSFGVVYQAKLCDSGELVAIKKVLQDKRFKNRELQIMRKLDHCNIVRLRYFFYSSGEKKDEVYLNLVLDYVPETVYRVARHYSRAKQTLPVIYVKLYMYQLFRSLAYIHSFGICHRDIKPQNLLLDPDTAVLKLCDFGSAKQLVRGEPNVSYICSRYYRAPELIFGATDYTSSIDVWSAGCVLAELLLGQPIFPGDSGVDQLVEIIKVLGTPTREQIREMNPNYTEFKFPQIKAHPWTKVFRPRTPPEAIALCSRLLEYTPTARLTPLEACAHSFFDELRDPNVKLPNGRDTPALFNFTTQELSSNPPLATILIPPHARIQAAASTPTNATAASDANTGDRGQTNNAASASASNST
UniProt P28190, whole entry, looked up: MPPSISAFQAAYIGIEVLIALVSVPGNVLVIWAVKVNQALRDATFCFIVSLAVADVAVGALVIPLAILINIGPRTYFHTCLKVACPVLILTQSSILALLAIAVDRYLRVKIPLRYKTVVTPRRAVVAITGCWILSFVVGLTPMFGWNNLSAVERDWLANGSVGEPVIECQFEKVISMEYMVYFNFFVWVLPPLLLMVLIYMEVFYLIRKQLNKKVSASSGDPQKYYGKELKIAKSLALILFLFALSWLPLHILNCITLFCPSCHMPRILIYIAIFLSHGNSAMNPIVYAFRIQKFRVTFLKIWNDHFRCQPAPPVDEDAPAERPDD
UniProt P08219: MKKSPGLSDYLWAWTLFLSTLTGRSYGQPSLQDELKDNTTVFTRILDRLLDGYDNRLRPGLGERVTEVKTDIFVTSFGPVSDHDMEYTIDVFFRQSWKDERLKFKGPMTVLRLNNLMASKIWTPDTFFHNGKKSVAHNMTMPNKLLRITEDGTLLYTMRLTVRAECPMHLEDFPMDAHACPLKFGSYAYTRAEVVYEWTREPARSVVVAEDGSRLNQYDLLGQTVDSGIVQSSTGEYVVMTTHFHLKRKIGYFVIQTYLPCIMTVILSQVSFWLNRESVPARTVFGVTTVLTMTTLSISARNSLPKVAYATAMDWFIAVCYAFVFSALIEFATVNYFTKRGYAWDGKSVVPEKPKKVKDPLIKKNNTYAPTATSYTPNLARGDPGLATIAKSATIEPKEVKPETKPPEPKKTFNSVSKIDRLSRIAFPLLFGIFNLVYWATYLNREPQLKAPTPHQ
UniProt Q9Y233: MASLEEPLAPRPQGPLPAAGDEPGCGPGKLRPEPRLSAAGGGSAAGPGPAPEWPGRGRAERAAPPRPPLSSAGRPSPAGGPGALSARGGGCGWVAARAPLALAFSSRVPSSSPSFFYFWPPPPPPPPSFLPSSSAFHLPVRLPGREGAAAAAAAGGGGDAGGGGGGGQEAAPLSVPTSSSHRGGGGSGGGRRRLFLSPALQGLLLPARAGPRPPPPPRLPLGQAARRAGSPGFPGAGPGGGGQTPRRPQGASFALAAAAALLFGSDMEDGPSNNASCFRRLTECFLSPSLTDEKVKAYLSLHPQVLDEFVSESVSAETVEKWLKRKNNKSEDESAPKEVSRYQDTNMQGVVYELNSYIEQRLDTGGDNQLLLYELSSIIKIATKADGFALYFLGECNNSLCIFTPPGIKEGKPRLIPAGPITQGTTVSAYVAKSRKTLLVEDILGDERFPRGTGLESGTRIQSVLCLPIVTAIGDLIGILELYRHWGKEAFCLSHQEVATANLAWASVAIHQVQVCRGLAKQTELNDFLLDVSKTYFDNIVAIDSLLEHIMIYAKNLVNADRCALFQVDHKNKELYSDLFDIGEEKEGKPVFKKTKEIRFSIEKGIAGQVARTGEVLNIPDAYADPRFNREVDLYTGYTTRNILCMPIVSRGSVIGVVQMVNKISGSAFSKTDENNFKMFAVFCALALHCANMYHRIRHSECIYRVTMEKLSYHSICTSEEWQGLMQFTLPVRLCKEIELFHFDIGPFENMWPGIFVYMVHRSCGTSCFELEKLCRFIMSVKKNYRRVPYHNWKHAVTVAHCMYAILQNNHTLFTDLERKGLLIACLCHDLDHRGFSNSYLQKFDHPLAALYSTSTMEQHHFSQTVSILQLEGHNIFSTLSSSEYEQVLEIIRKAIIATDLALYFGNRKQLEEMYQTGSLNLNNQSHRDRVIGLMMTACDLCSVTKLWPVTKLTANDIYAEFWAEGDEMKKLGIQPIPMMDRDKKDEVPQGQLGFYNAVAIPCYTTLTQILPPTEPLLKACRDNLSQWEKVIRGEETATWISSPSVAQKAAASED
UniProt P10275: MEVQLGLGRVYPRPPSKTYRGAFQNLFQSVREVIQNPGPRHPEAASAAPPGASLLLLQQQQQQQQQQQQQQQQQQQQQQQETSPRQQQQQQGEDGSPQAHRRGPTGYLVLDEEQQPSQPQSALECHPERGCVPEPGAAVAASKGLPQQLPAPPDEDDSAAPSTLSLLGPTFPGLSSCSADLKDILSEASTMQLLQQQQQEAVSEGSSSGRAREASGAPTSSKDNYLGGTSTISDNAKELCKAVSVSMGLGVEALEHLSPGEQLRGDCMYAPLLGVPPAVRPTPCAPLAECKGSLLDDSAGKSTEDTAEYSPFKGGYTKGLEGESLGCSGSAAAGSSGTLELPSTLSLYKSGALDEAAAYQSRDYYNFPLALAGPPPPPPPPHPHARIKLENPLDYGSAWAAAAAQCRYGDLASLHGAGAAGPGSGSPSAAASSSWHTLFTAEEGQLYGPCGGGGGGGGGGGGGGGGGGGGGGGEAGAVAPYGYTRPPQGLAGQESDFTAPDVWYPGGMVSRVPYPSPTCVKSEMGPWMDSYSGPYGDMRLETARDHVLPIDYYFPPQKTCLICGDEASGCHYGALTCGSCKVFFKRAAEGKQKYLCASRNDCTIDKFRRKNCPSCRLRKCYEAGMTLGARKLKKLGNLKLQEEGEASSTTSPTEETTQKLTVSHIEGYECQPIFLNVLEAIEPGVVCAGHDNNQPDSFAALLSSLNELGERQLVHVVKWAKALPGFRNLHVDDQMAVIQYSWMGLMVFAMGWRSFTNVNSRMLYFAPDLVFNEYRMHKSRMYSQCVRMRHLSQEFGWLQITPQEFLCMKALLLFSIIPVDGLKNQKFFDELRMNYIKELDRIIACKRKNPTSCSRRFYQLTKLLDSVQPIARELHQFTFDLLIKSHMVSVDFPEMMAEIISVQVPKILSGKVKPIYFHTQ
UniProt P11511: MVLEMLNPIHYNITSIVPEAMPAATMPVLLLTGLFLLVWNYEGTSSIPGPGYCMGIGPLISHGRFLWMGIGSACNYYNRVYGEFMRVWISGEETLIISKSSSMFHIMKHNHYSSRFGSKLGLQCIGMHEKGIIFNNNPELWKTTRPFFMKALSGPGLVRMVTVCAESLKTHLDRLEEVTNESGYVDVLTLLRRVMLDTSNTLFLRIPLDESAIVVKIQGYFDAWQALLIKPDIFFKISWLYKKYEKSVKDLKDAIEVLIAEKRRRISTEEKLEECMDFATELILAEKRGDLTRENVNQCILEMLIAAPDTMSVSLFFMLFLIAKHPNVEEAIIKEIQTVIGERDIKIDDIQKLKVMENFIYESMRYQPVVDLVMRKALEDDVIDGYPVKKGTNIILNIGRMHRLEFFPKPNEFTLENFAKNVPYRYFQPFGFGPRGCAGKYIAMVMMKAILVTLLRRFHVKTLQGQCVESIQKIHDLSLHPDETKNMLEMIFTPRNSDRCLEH
UniProt P37231: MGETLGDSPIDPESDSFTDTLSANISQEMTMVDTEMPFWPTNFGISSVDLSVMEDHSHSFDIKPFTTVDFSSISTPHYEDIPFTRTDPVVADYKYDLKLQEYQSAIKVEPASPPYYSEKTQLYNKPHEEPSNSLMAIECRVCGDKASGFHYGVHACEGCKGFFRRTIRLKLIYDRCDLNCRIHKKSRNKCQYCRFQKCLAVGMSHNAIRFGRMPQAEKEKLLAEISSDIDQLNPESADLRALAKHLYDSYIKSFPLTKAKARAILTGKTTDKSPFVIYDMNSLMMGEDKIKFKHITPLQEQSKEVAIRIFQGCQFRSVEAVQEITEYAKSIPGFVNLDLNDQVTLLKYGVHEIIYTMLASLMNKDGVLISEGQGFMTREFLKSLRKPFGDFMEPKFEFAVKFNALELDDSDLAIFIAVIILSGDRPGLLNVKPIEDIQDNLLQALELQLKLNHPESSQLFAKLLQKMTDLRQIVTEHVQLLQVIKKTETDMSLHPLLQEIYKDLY

[2] = CCTE_Mundy_HCI_hN2_NOG_NeuronCount: CCTE's Neurite Outgrowth Assay in human hN2 cells for Neuron Count, Mundy Lab (AID 2284221)
Outline: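 Read-out is the number of betaIII-tubulin-positive neurons imaged by automated high-content analysis, with DMSO as negative control.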

[3] = target: human CYP2C9, CYP2C9 (gene 1559) (UniProt P11712); assay: NVS_ADME_hCYP2C9: NovaScreen (NVS) CYP450-related Enzyme Activity (ADME) Assay for human CYP2C9 (AID 2283108)
Outline: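 Cell-free assay of recombinant human CYP2C9 produced in Sf9 cells, with enzyme activity read by fluorescence intensity 0.75 h after compound addition. Loss of signal versus an acetonitrile negative control indicates inhibition. Primary screen used 10 uM in duplicate; actives were retested in concentration series.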

[4] = target: human AKT serine/threonine Kinase 2 (AKT2), AKT2 (gene 208) (UniProt P31751); assay: NVS_ENZ_hAKT2: NovaScreen (NVS) Enzymatic Assay for human AKT serine/threonine Kinase 2 (AKT2) (AID 2283141)
Outline: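 Cell-free fluorescence/electrophoretic mobility shift readout of recombinant human AKT2 activity, 1 h after chemical dosing. Duplicate primary screen at 25 uM, then singleton concentration-response up to 50 uM; loss of signal versus DMSO baseline.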

[5] = target: human Muscarinic, M4 Receptor, CHRM4 (gene 1132) (UniProt P08173); assay: NVS_GPCR_hM4: NovaScreen (NVS) G Protein-Coupled Receptor Assay for human Muscarinic, M4 Receptor (AID 2283274)
Outline: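 Cell-free radioligand displacement using CHO-derived human M4 receptor protein, 1 h after dosing; bound radioactivity by filtration and scintillation counting. Primary screen single 25 uM duplicate, actives followed in concentration series.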

[6] = read-out: xenobiotic metabolism (CYP1A2), CYP1A2 (gene 1544); assay: CLD_CYP1A2_24hr: CellzDirect (CLD) Gene Expression Assay for xenobiotic metabolism (CYP1A2) at 24 hours (AID 2283683)
Outline: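 Primary human hepatocytes from two donor preparations dosed daily with multiple concentrations of chemical, 0.2% DMSO vehicle. CYP1A2 mRNA at 24 h quantified by qNPA chemiluminescence; gain of signal analyzed relative to DMSO. Cytotoxicity flagged by phase-contrast morphology.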

[7] = read-out: xenobiotic metabolism (CYP1A2), CYP1A2 (gene 1544); assay: CLD_CYP1A2_48hr: CellzDirect (CLD) Gene Expression Assay for xenobiotic metabolism (CYP1A2) at 48 hours (AID 2283703)
Outline: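 Primary human hepatocytes from two donor preparations were dosed daily for two days at multiple concentrations in 0.2% DMSO vehicle. CYP1A2 mRNA was measured at 48 hours by chemiluminescent quantitative nuclease protection assay, with gain of signal fitted versus DMSO and cytotoxicity annotated from morphology.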

[8] = target: Glycogen synthase kinase-3 beta (Homo sapiens) (UniProt P49841); assay: NVS_ENZ_hGSK3b: NovaScreen (NVS) Enzymatic Assay for human Glycogen Synthase Kinase-3 beta (GSK3b) (AID 2283165)
Outline: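 Recombinant enzyme with specific fluorescent substrate, 1 h, product separated by electrophoretic mobility shift. Primary duplicate screen at 25 uM; actives (e.g. 30% inhibition) followed in singleton concentration-response to 50 uM. Signal loss fitted versus DMSO.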

[9] = target: Adenosine receptor A1 (Bos taurus) (UniProt P28190); assay: NVS_GPCR_bAdoR_NonSelective: NovaScreen (NVS) G Protein-Coupled Receptor Assay for bovine Adenosine Receptor (AdoR), Non-selective Binding (AID 2283244)
Outline: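 Bovine striatal membranes, radioligand displacement binding, 1 h after dosing, filter-based scintillation counting. Screened in duplicate at 25 uM, then concentration-response up to 50 uM; loss of specific binding relative to DMSO.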

[10] = target: bovine Gamma-Aminobutyric Acid Type A Receptor Agonist (GABAR Agonist), GABRA1 (gene 780973) (UniProt P08219); assay: NVS_LGIC_bGABAR_Agonist: NovaScreen (NVS) Ligand-Gated Ion Channel Assay for bovine Gamma-Aminobutyric Acid Type A Receptor Agonist (GABAR Agonist) (AID 2283338)
Outline: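 Radioligand binding to bovine cerebellar membranes in agonist format, read by filter-based scintillation counting after 1 h. Primary screen in duplicate at 25 uM, with actives followed in concentration series. Gain of signal versus DMSO.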

[11] = read-out: alkyl and aryl transferase (GSTA2), GSTA2 (gene 2939); assay: CLD_GSTA2_24hr: CellzDirect (CLD) Gene Expression Assay for alkyl and aryl transferase (GSTA2) at 24 hours (AID 2283693)
Outline: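 Primary human hepatocytes (two donor preparations) dosed daily for two days with chemicals at multiple concentrations (vehicle 0.2% DMSO); GSTA2 mRNA at 24 h measured by qNPA chemiluminescence, gain-of-signal versus DMSO.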

[12] = target: Estrogen receptor (Homo sapiens) (UniProt P03372); assay: CCTE_Deisenroth_AIME_384WELL_LUC_Inactive: CCTE's 384-well Estrogen Receptor Transactivation Assay without AIME metabolic competence (ERTA luciferase; metabolism negative), Deisenroth Lab (AID 2284038);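 also: VM7Luc4E2 breast cells given medium preincubated 2 h with S9-free microspheres; hits raise estrogen receptor luciferase signal so potencies reflect agonists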
Outline: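 Metabolism-negative mode: chemicals (10-point, 0.002–200 uM) held 2 h with alginate-water microspheres, then conditioned medium applied to VM7Luc4E2 cells for 24 h. Luciferase induction referenced to 17beta-estradiol.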

[13] = target: human Phosphodiesterase 10 (PDE10), PDE10A (gene 10846) (UniProt Q9Y233); assay: NVS_ENZ_hPDE10: NovaScreen (NVS) Enzymatic Assay for human Phosphodiesterase 10 (PDE10) (AID 2283195)
Outline: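 Fluorescence/mobility-shift readout of PDE10A enzyme activity, taken 1 h post-dosing. Primary screen in duplicate at 25 uM; actives (e.g. ≥30% inhibition) retested as singleton concentration-response, top concentration 50 uM.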

[14] = target: Nucleoli Translocation, AR (gene 367) (UniProt P10275); assay: UPITT_HCI_U2OS_AR_TIF2_Nucleoli_Agonist: University of Pittsburgh U2OS Androgen Receptor-Transcriptional Intermediary Factor 2 (AR-TIF2) Agonism High Content Imaging Assay for Nucleoli Translocation (AID 2283998)
Outline: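 High-content images quantify nucleolar accumulation of RFP-fused AR in cells also expressing GFP-TIF2; the endpoint is fitted as signal gain versus DMSO controls across final concentrations of 0.195 to 50 uM.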

[15] = target: Ratio of Nucleoli Translocation and Cytoplasm, AR (gene 367) (UniProt P10275); assay: UPITT_HCI_U2OS_AR_TIF2_Nucleoli_Cytoplasm_Ratio_Antagonist: University of Pittsburgh U2OS Androgen Receptor-Transcriptional Intermediary Factor 2 (AR-TIF2) Antagonism High Content Imaging Assay for Ratio of Nucleoli Translocation and Cytoplasm (AID 2283999);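 also: antagonists lower the DHT-driven ratio of nucleolar to cytoplasmic red signal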
Outline: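 U2OS cells co-expressing RFP-tagged human AR and GFP-tagged TIF2, antagonist mode with DHT as baseline. Nucleolar-to-cytoplasmic red fluorescence ratio imaged by high-content microscopy; final compound 20 uM (0.2% DMSO) primary, 0.195–50 uM (0.5% DMSO) concentration-response.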

[16] = target: human CYP19A1, CYP19A1 (gene 1588) (UniProt P11511); assay: NVS_ADME_hCYP19A1: NovaScreen (NVS) CYP450-related Enzyme Activity (ADME) Assay for human CYP19A1 (AID 2283098);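 as to AC50: potency for inhibitors seen as loss of fluorescent enzyme signal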
Outline: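 Cell-free enzyme assay with recombinant protein and a specific fluorogenic substrate, read by fluorescence intensity 0.5 h after dosing. Primary screen ran in duplicate at 10 uM; actives were retested in concentration series. Loss of signal versus acetonitrile baseline.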

[17] = target: Peroxisome proliferator-activated receptor gamma (Homo sapiens) (UniProt P37231); assay: OT_PPARg_PPARgSRC1_0480: Odyssey Thera (OT) 8-hour Protein-Complementation Assay for Peroxisome Proliferator-activated Receptor Gamma / SRC-1 Co-activator (AID 2283387);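 also: nuclear to cytoplasmic split Venus YFP fluorescence ratio reporting PPARg SRC-1 interaction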
Outline: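 Protein-fragment complementation in HEK293T: Venus YFP halves (residues 1-158, 159-239, mutated to IFP1/IFP2) fused to PPARg/SRC-1. 8 h exposure; N/C ratio at 488 nm; DMSO negative control.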

[18] = target: D(1A) dopamine receptor (Homo sapiens) (UniProt P21728); assay: NVS_GPCR_hDRD1: NovaScreen (NVS) G Protein-Coupled Receptor Assay for human Dopamine Receptor D1 (DRD1) (AID 2283269)
Outline: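 HEK293-derived receptor preparation; radioligand competitive displacement; 1 h; filtration + scintillation counting. DMSO = negative control/baseline. Primary: 25 uM, duplicate; secondary: concentration–response for actives.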

Q: Which AC50 [1] does the source give for `O=P(OCC(Br)CBr)(OCC(Br)CBr)OCC(Br)CBr` (stereo not drawn) here?
A: inconclusive: 43.5 µM

Q: With `COP(=O)(NC(C)=O)SC` (stereo not drawn) as the compound, how does the AC50 [2] read?
A: inconclusive: 0.00843 µM

Q: For `CC(C)C1(C)N=C(c2ncccc2C(=O)O)NC1=O` (stereo not drawn), which outcome [3] is on record?
A: inactive

Q: What about the AC50 [4] of the same compound?
A: inconclusive: 25 µM

Q: And the AC50 [5]?
A: inconclusive: 25 µM

Q: And the AC50 [6]?
A: inconclusive: 20 µM

Q: What about the AC50 [7] of the same compound?
A: inconclusive: 2.31 µM

Q: Which outcome [8] does the source give for `CCNc1nc(Cl)nc(NC(C)(C)C#N)n1` here?
A: inactive

Q: What about the AC50 [9] of the same compound?
A: active: 13.3 µM

Q: Which outcome [1] does the source give for `COc1cc(OC)nc(NC(=O)NS(=O)(=O)c2ncccc2C(=O)N(C)C)n1` here?
A: inactive

Q: Which outcome [10] does the source give for `Nc1cnn(-c2ccccc2)c(=O)c1Cl` here?
A: inactive

Q: And the AC50 [11]?
A: inconclusive: 20 µM

Q: What about the AC50 [7] of the same compound?
A: active: 4.24 µM

Q: Which AC50 [3] does the source give for `Nc1ccc(Cc2ccc(N)cc2)cc1` here?
A: inconclusive: 10 µM

Q: Which outcome [12] does the source give for `Cc1ccc(N)cc1Cl` here?
A: inactive

Q: With `CC(C)(C)c1ccc(CCOc2ncnc3ccccc23)cc1` as the compound, how does the outcome [13] read?
A: inactive

Q: Which results are given for `C=CC(Cl)CCl` (stereo not drawn)?
A: AC50 [14]: inconclusive: 51 µM; outcome [15]: inactive

Q: Which outcome [13] does the source give for `Cc1ncc(C[n+]2csc(CCO)c2C)c(N)n1` here?
A: inactive

Q: With `CS(=O)(=O)NC(=O)c1cc(Oc2ccc(C(F)(F)F)cc2Cl)ccc1[N+](=O)[O-]` as the compound, how does the outcome [16] read?
A: inactive

Q: And the outcome [9]?
A: inactive

Q: With `COC(=O)c1ccccc1N` as the compound, how does the AC50 [16] read?
A: inconclusive: 10 µM

Q: Which AC50 [1] does the source give for `CCCN(CC)CC1COC2(CCC(C(C)(C)C)CC2)O1` (stereo not drawn) here?
A: inconclusive: 50 µM

Q: Which AC50 [17] does the source give for `COP(=O)(OC)C(O)C(Cl)(Cl)Cl` (stereo not drawn) here?
A: inconclusive: 50 µM

Q: Which AC50 [13] does the source give for `ClCC(Cl)Cl` here?
A: inconclusive: 25 µM

Q: For `CN(C)[C@@H]1C(=O)C(C(N)=O)=C(O)[C@@]2(O)C(=O)C3=C(O)c4c(O)cccc4[C@@](C)(O)[C@H]3C[C@@H]12`, which AC50 [8] is on record?
A: active: 25 µM

Q: With `CNC(=O)O/N=C/C(C)(C)S(C)=O` (stereo not drawn) as the compound, how does the outcome [12] read?
A: inactive

Q: With `CCCN(CCC)c1c([N+](=O)[O-])cc(C(C)C)cc1[N+](=O)[O-]` as the compound, how does the AC50 [18] read?
A: inconclusive: 25 µM

Q: With `Clc1ccccc1Cl` as the compound, how does the AC50 [4] read?
A: inconclusive: 25 µM

Q: What about the outcome [8] of the same compound?
A: inactive

Q: With `Clc1nc(Cl)nc(Cl)n1` as the compound, how does the AC50 [17] read?
A: inconclusive: 50 µM

Q: What does the source list for `CNC(=O)Oc1cc(C)c(SC)c(C)c1`?
A: outcome [18]: inactive; AC50 [14]: active: 50 µM
